Measurements from the supplement of paper PMC10849652.
The other results are listed elsewhere or left out.

Amino acid sequences for entries named in this document (tags omitted). A change or cut given only in a name is not applied to a line headed by its entry.
UniProt Q96PM9: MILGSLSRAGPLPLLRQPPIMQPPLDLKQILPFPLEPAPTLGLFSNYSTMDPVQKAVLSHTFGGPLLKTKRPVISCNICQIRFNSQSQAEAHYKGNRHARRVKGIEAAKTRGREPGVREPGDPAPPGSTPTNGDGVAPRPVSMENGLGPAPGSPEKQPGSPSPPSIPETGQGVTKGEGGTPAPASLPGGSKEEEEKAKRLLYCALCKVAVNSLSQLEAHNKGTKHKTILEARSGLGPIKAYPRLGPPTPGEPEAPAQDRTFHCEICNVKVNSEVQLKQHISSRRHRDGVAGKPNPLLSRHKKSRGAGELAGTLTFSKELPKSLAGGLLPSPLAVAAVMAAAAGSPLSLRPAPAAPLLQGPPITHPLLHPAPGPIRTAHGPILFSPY
UniProt O15015: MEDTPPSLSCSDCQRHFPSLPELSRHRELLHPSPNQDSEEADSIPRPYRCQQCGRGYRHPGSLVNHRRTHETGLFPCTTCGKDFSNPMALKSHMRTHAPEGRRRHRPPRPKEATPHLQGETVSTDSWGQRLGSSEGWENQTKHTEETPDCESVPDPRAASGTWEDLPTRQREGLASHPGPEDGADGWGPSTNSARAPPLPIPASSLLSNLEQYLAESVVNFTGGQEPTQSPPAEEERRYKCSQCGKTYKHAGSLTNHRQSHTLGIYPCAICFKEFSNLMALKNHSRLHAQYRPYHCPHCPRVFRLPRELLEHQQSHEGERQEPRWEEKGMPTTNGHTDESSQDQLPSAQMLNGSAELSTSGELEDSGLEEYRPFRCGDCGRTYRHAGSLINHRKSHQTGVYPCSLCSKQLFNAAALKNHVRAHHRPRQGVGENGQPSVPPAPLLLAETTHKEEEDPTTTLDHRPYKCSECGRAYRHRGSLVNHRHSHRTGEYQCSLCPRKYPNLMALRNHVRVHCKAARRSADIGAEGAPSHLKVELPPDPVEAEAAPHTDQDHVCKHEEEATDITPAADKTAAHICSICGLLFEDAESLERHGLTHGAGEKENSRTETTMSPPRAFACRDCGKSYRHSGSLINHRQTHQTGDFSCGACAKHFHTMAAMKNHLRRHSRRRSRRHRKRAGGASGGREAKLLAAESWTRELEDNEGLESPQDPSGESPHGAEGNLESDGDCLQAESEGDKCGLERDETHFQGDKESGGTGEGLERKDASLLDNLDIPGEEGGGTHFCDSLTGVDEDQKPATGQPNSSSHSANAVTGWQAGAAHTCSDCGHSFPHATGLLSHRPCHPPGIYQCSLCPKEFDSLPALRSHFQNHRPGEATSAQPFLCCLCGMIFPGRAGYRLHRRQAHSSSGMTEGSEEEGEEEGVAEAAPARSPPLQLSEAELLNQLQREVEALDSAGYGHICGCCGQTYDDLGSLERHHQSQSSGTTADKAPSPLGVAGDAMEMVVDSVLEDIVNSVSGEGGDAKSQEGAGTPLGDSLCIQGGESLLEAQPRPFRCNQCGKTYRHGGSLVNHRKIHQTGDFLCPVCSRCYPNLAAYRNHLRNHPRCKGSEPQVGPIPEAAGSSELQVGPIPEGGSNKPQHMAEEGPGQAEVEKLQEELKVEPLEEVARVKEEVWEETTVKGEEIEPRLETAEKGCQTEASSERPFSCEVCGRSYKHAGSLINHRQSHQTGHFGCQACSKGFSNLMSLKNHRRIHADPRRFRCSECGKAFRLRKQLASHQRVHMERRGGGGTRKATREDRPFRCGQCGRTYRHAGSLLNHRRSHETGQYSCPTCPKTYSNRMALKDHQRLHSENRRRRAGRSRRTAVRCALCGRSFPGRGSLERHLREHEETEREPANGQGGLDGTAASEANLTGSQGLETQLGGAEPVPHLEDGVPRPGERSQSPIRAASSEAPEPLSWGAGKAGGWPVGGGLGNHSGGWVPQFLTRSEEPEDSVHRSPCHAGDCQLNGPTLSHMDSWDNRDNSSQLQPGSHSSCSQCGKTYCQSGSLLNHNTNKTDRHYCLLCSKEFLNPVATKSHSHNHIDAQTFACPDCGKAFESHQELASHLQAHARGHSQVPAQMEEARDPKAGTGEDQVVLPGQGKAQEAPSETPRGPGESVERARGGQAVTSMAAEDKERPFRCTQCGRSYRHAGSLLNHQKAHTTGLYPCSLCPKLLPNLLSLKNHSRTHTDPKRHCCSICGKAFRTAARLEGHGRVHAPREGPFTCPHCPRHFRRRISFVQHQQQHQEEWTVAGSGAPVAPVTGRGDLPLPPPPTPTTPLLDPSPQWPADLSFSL
UniProt Q86YA3: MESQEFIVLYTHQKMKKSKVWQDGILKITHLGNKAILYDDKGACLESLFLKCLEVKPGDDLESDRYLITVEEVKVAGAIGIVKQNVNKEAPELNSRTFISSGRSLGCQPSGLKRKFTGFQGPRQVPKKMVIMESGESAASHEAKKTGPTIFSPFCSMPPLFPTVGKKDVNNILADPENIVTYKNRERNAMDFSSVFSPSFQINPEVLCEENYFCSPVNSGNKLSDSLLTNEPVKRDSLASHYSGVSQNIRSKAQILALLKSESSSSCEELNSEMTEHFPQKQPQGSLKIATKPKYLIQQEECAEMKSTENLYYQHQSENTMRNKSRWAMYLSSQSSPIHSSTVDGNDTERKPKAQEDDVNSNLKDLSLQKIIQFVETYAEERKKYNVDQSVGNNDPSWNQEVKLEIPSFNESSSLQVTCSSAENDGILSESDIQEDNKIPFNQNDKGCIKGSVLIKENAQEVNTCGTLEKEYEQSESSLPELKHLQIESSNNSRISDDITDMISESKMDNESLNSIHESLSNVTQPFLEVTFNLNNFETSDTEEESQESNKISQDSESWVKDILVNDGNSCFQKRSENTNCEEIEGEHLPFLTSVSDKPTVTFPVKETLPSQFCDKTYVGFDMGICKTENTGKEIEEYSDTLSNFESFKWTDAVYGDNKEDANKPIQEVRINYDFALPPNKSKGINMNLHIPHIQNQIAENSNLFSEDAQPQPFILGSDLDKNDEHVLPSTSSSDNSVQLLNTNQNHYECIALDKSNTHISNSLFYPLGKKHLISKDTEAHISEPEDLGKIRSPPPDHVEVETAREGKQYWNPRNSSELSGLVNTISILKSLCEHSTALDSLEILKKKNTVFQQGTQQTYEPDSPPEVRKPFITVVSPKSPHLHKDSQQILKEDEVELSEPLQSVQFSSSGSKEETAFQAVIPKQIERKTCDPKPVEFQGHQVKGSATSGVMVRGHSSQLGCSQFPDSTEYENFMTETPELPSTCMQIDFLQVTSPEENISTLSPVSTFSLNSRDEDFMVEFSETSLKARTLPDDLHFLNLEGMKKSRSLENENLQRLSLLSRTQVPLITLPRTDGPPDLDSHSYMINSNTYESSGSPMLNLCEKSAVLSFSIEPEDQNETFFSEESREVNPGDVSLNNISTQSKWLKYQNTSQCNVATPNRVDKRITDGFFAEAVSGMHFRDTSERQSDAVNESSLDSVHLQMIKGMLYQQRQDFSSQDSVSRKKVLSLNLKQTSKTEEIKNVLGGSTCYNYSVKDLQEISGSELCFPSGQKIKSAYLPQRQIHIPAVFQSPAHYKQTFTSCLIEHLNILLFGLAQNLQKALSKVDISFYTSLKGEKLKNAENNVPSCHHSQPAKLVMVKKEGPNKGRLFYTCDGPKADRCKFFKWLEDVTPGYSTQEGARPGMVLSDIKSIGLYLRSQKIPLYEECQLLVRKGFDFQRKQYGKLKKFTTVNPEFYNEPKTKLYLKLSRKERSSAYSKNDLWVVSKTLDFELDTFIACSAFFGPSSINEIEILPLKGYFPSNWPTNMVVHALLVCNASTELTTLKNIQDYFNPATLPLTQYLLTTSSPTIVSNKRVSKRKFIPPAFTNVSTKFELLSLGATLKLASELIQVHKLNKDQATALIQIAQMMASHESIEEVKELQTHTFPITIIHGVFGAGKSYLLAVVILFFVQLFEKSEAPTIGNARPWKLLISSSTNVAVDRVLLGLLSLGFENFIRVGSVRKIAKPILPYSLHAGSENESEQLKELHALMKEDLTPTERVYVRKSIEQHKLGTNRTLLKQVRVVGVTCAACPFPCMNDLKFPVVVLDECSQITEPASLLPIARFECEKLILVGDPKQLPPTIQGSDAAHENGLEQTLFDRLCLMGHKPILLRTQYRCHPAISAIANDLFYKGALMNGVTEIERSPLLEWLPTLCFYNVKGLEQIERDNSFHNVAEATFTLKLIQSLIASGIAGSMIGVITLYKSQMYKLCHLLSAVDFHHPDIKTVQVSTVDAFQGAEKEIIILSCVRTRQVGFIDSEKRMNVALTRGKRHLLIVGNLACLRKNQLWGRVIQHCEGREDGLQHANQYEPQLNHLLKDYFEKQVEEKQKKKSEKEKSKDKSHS
UniProt Q96MX3: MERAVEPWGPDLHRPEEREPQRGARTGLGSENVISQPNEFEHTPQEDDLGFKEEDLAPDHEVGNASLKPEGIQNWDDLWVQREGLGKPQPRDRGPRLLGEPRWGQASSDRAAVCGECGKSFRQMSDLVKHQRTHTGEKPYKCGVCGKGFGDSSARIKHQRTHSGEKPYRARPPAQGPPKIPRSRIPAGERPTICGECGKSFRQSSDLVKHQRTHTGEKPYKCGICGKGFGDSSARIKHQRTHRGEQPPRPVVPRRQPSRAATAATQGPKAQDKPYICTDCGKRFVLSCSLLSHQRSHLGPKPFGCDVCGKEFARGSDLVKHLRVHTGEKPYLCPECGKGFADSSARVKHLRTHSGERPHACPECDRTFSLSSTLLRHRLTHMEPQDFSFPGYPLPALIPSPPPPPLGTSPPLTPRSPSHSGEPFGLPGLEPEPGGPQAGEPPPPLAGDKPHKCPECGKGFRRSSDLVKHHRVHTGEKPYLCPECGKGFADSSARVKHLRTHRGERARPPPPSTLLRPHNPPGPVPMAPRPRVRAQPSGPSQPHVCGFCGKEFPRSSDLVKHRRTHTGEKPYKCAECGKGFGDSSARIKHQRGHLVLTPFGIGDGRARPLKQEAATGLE
UniProt Q96IQ9: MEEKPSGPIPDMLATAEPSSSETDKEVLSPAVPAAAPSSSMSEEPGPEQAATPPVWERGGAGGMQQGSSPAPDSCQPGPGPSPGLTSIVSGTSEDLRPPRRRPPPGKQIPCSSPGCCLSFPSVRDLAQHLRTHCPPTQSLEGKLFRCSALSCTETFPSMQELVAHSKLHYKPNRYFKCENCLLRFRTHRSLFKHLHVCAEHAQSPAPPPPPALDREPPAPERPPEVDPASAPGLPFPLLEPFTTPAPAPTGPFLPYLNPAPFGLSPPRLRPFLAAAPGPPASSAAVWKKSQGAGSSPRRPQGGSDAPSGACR
UniProt Q96K58: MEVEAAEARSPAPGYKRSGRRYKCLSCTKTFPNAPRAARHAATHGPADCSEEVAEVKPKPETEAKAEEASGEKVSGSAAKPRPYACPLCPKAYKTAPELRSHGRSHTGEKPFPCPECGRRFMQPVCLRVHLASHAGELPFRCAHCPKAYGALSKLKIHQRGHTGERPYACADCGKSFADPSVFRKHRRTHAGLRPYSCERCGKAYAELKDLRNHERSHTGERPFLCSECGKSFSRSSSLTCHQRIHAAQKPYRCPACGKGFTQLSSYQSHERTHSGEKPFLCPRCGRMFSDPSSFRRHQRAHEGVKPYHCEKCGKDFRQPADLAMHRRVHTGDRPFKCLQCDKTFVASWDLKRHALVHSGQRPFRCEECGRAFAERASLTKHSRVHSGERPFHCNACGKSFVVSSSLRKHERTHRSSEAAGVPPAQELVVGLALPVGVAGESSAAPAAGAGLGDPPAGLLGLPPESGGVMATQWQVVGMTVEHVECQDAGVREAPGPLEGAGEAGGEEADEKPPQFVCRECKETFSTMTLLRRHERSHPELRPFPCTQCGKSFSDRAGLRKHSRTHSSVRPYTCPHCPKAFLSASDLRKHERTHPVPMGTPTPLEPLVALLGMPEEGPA
UniProt P59817: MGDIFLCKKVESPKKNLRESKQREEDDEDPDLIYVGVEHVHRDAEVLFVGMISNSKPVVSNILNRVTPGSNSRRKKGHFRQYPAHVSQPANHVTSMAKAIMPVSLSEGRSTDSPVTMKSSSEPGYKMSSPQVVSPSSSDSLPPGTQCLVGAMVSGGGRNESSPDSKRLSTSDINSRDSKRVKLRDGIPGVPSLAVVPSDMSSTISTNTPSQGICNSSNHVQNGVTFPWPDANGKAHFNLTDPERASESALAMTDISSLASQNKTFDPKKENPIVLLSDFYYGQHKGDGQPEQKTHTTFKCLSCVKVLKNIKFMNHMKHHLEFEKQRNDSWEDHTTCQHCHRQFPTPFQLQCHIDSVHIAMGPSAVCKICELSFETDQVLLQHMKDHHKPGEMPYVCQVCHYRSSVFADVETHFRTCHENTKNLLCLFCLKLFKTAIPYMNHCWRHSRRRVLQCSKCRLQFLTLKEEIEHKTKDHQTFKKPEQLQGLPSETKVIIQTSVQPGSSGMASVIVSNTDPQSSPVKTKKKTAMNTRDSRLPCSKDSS

How the values were obtained:
Assay in all cases: log2 fold change, soluble protein after heating vs DMSO (PISA); higher = thermal stabilisation; K562 lysate, 10 uM; active = over 0.2 and 3.5 SD of the protein, either way, in both replicates (recomputed)
[1] = compound: O=C1NC(=O)C(c2cnc3ccccn23)=C1c1cn2c3c(cc(F)cc13)CN(C(=O)N1CCCCC1)CC2
Outline: (§1)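 A 30 min treatment with 10 μM compound was applied to crude K562 extract at 1 mg/mL protein in PBS pH 7.4 with 1 mM MgCl2. Heating for 3 min spanned 48°C-58°C, after which aliquots were pooled, adjusted to 0.5% NP-40 at 4°C and spun at 21,000xg for 90 min. TMTpro 16plex LC-MS/MS of the supernatant, with channel sums equalised, gave values recorded as log-two fold change in thermal stability against solvent controls, from duplicates.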

vorinostat = compound: O=C(CCCCCCC(=O)Nc1ccccc1)NO [vorinostat]
Outline: as §1

silmitasertib = compound: O=C(O)c1ccc2c(c1)nc(Nc1cccc(Cl)c1)c1ccncc12 [silmitasertib]
Outline: as §1

entospletinib = compound: c1cn2cc(-c3ccc4cn[nH]c4c3)nc(Nc3ccc(N4CCOCC4)cc3)c2n1 [entospletinib]
Outline: as §1

In the case of ZNF324 (UniProt O75467), the log2 fold change [1] is reported as inactive: -0.187.

ZNF346 (UniProt Q9UL40) was tested, and the log2 fold change (vorinostat) was inactive: 0.137, the log2 fold change (silmitasertib) was inactive: 0.018 and the log2 fold change [1] was inactive: -0.05. The log2 fold change (entospletinib) was inactive: 0.02.

ZNF410 isoform 5 (UniProt Q86VK4) was tested, and the log2 fold change [1] was inactive: -0.085 and the log2 fold change (entospletinib) was inactive: 0.022.

For ZNF391 (UniProt Q9UJN7), the log2 fold change (entospletinib) was inactive: 0.17.

ZNF74 isoform 5 (UniProt Q16587) was tested, and the log2 fold change (vorinostat) was inactive: 0.037, the log2 fold change (silmitasertib) was inactive: 0.133 and the log2 fold change (entospletinib) was inactive: 0.111.

ZNF385A (UniProt Q96PM9) was tested, and the log2 fold change (vorinostat) was inactive: 0.049, the log2 fold change (silmitasertib) was inactive: 0.037 and the log2 fold change [1] was inactive: -0.01.

In the case of ZNF281 (UniProt Q9Y2X9), the log2 fold change (vorinostat) is reported as active: -0.403, the log2 fold change (silmitasertib) is reported as inactive: -0.084 and the log2 fold change [1] is reported as inactive: -0.072.

For ZNF770 (UniProt Q6IQ21), the log2 fold change [1] was inactive: -0.065.

With ZNF646 (UniProt O15015) the log2 fold change [1] was inactive: 0.03.

In the case of ZSCAN21 (UniProt Q9Y5A6), the log2 fold change (entospletinib) is reported as inactive: -0.208.

ZGRF1 (UniProt Q86YA3) was tested, and the log2 fold change [1] was inactive: -0.042 and the log2 fold change (entospletinib) was inactive: -0.031.

In the case of ZNF627 (UniProt Q7L945), the log2 fold change (vorinostat) is reported as inactive: -0.325, the log2 fold change (silmitasertib) is reported as inactive: -0.358 and the log2 fold change [1] is reported as inactive: -0.067.

With ZMYND19 (UniProt Q96E35) the log2 fold change (vorinostat) was inactive: 0.008, the log2 fold change (silmitasertib) was inactive: -0.092 and the log2 fold change [1] was inactive: 0.015.

In the case of ZRSR2 (UniProt Q15696), the log2 fold change [1] is reported as inactive: -0.022.

For ZNF16 (UniProt P17020), the log2 fold change [1] was inactive: -0.005.

In the case of ZNF384 (UniProt Q8TF68), the log2 fold change (vorinostat) is reported as inactive: 0.128, the log2 fold change (silmitasertib) is reported as inactive: -0.059 and the log2 fold change [1] is reported as inactive: -0.123. For the same target, the log2 fold change (entospletinib) was inactive: 0.214.

ZNF655 isoform 3 (UniProt Q8N720) was tested, and the log2 fold change [1] was inactive: 0.078 and the log2 fold change (entospletinib) was inactive: 0.06.

ZNF652 (UniProt Q9Y2D9) was tested, and the log2 fold change [1] was inactive: -0.042.

In the case of ZSCAN26 (UniProt Q16670), the log2 fold change [1] is reported as inactive: -0.024.

In the case of ZNF48 (UniProt Q96MX3), the log2 fold change (entospletinib) is reported as inactive: -0.022.

ZNF184 (UniProt Q99676) was tested, and the log2 fold change [1] was inactive: 0.124.

ZNF808 (UniProt Q8N4W9) was tested, and the log2 fold change [1] was inactive: 0.443.

ZNF100 (UniProt Q8IYN0) was tested, and the log2 fold change [1] was inactive: 0.19.

In the case of ZNF592 (UniProt Q92610), the log2 fold change (vorinostat) is reported as inactive: -0.231, the log2 fold change (silmitasertib) is reported as inactive: 0.064 and the log2 fold change [1] is reported as inactive: -0.038. The log2 fold change (entospletinib) was inactive: 0.

For ZNF414 isoform 2 (UniProt Q96IQ9), the log2 fold change [1] was inactive: -0.076 and the log2 fold change (entospletinib) was inactive: -0.108.

For ZNF668 isoform 2 (UniProt Q96K58), the log2 fold change (vorinostat) was inactive: -0.354, the log2 fold change (silmitasertib) was inactive: -0.131 and the log2 fold change [1] was inactive: -0.023.

With ZNF816 (UniProt Q0VGE8) the log2 fold change [1] was inactive: 0.082.

For ZNF280A, A0A0G2JN84, the log2 fold change [1] was inactive: -0.038.

ZNF280A (UniProt P59817) was tested, and the log2 fold change (vorinostat) was inactive: -0.333, the log2 fold change (silmitasertib) was inactive: -0.066 and the log2 fold change [1] was inactive: 0.01.
